Results are given in words; binding and its absence hold for the method and conditions named. Some results given as binding are weak or reduced against the parent protein; the word gives no strength.
Biological target: cynomolgus DKK1 (cynomolgus monkey (Macaca fascicularis))
Experiment: solution equilibrium titration (SET)

B1: anti-DKK1/4 antibody (antibody, V domains shown)
VH: QVQLVESGGGLVQPGGSLRLSCAASGFTFSSYWMSWVRQAPGKGLEWVSGISYSGSNTHYADSVKGRFTISRDNSKNTLYLQMNSLRAEDTAVYYCARMGIDLDYWGQGTLVTVSS
VL: DIALTQPASVSGSPGQSITISCTGTSSDVGGFNYVSWYQQHPGKAPKLMIHDGSNRPSGVSNRFSGSKSGNTASLTISGLQAEDEADYYCQSWDVSPITAVFGGGTKLTVLG
  binding: binds
